The experiment addresses T1, HA-SNX5 (UniProt Q9Y5X3).
T1 sequence: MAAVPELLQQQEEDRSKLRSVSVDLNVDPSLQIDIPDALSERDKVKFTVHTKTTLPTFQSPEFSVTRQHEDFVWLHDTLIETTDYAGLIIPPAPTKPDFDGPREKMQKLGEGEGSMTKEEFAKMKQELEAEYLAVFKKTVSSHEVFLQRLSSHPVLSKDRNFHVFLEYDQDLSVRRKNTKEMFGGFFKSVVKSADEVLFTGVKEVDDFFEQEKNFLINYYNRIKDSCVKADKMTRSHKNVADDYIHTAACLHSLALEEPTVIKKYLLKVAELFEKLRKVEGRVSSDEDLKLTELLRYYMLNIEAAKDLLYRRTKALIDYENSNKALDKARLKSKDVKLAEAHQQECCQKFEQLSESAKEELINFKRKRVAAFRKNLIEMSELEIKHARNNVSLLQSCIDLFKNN
Put plainly: co-IP; COS7 cells co-expressing HA-SNX5 and Flag-hCI-M6PR-tail; NP-40 lysis buffer (150 mmol/L NaCl, 50 mmol/L Tris-HCl pH 8.0, 5 mmol/L EDTA, 0.5% NP-40); immunoprecipitated with anti-HA on protein A/G agarose, 2 hours at 4 °C; blotted with anti-Flag.

Results are given in words; binding and its absence hold for the method and conditions named. Binding seen in cells or lysates may run through a third protein. Some results given as binding are weak or reduced against the parent protein; the word gives no strength. Tags and fused reporters may be left off the sequences shown.

B1: Flag-hCI-M6PR-tail (domain or fragment, UniProt P11717 2328-2491)
chain: KKERRETVISKLTTCCRRSSNVSYKYSKVNKEEETDENETEWLMEEIQLPPPRQGKEGQENGHITTKSVKALSSLHGDDQDSEDEVLTIPEVKVHSGRGAGAESSHPVRNAQSNALQEREDDRVGLVRGEKARKGKSSSAQQKTVSSTKLVSFHDDSDEDLLHI
Turning to B1, the binding entry is “binds”.

For the origin of these results see publication PMC6117607.
